{"source": "PubChem BioAssay AID1508597, Cure First – 2020", "aim": "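Genes whose silencing sensitises or protects ovarian cancer cells against rucaparib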 (primary screen)", "cells": "human ovarian carcinoma lines grown from tumours: OCI-P5x (papillary serous) and OCI-C5x (clear cell)", "reagent": "siRNA pool against human genes, 1.25 pmol siRNA per well", "duration": "72 h or 96 h, depending on the cell culture", "treatment": "rucaparib 20 µM (about IC30) or vehicle, present until read-out", "measured": "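Luminescent ATP-based viability assay read 72 or 96 h after transfection, depending on culture, given as normalised percent viability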", "direction": "viability, normalised: higher = more viable cells remaining", "rule for the call": "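Active when normalised viability falls below 80 percent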", "calls": "active = viability under 80%; inactive = viability 80% or more", "note": "The whole screen tested about 2,100 reagents; shown is a random part of them. 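Calls flag viability under 80% in either arm, not effects specific to rucaparib; the reference for percent is not stated.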 Unmarked entries are inactive. The record does not give: the 100% reference."}
{"gene symbol":"TRIM16","rucaparib or vehicle":"Rucaparib","cell line":"OCI-C5x (clear cell)","technical replicate":"1","viability, normalised (%)":"74.5 (active)"}
{"gene symbol":"TRIM16","rucaparib or vehicle":"Rucaparib","cell line":"OCI-C5x (clear cell)","technical replicate":"2","viability, normalised (%)":"57.8 (active)"}
{"gene symbol":"TRIM16","rucaparib or vehicle":"Rucaparib","cell line":"OCI-C5x (clear cell)","technical replicate":"3","viability, normalised (%)":"44.5 (active)"}
{"gene symbol":"TRIM16","rucaparib or vehicle":"Rucaparib","cell line":"OCI-P5x (serous)","technical replicate":"1","viability, normalised (%)":"73.6 (active)"}
{"gene symbol":"TRIM16","rucaparib or vehicle":"Rucaparib","cell line":"OCI-P5x (serous)","technical replicate":"2","viability, normalised (%)":"73.5 (active)"}
{"gene symbol":"TRIM16","rucaparib or vehicle":"Rucaparib","cell line":"OCI-P5x (serous)","technical replicate":"3","viability, normalised (%)":"68 (active)"}
{"gene symbol":"TRIM16","rucaparib or vehicle":"Vehicle","cell line":"OCI-C5x (clear cell)","technical replicate":"1","viability, normalised (%)":"70.4 (active)"}
{"gene symbol":"TRIM16","rucaparib or vehicle":"Vehicle","cell line":"OCI-C5x (clear cell)","technical replicate":"2","viability, normalised (%)":"66.3 (active)"}
{"gene symbol":"TRIM16","rucaparib or vehicle":"Vehicle","cell line":"OCI-C5x (clear cell)","technical replicate":"3","viability, normalised (%)":"65.7 (active)"}
{"gene symbol":"TRIM16","rucaparib or vehicle":"Vehicle","cell line":"OCI-P5x (serous)","technical replicate":"1","viability, normalised (%)":"73.4 (active)"}
{"gene symbol":"TRIM16","rucaparib or vehicle":"Vehicle","cell line":"OCI-P5x (serous)","technical replicate":"2","viability, normalised (%)":"78.3 (active)"}
{"gene symbol":"TRIM16","rucaparib or vehicle":"Vehicle","cell line":"OCI-P5x (serous)","technical replicate":"3","viability, normalised (%)":"66.9 (active)"}

Single entries from the list:
TRIM16, rucaparib or vehicle Vehicle, cell line OCI-C5x (clear cell), technical replicate 2, viability, normalised (%) = 66.3 (active)
TRIM16, rucaparib or vehicle Vehicle, cell line OCI-P5x (serous), technical replicate 3, viability, normalised (%) → 66.9 (active)
TRIM16, rucaparib or vehicle Rucaparib, cell line OCI-C5x (clear cell), technical replicate 3, viability, normalised (%) → 44.5 (active)
Under “viability, normalised (%)”, TRIM16, rucaparib or vehicle Vehicle, cell line OCI-C5x (clear cell), technical replicate 3 reads 65.7 (active)
TRIM16, rucaparib or vehicle Rucaparib, cell line OCI-P5x (serous), technical replicate 2, viability, normalised (%) = 73.5 (active)

Continued:
{"gene symbol":"CELF1","rucaparib or vehicle":"Rucaparib","cell line":"OCI-C5x (clear cell)","technical replicate":"1","viability, normalised (%)":"36.1 (active)"}
{"gene symbol":"CELF1","rucaparib or vehicle":"Rucaparib","cell line":"OCI-C5x (clear cell)","technical replicate":"2","viability, normalised (%)":"45 (active)"}
{"gene symbol":"CELF1","rucaparib or vehicle":"Rucaparib","cell line":"OCI-C5x (clear cell)","technical replicate":"3","viability, normalised (%)":"44.8 (active)"}
{"gene symbol":"CELF1","rucaparib or vehicle":"Rucaparib","cell line":"OCI-P5x (serous)","technical replicate":"1","viability, normalised (%)":"57.1 (active)"}
{"gene symbol":"CELF1","rucaparib or vehicle":"Rucaparib","cell line":"OCI-P5x (serous)","technical replicate":"2","viability, normalised (%)":"55.3 (active)"}
{"gene symbol":"CELF1","rucaparib or vehicle":"Rucaparib","cell line":"OCI-P5x (serous)","technical replicate":"3","viability, normalised (%)":"55.1 (active)"}
{"gene symbol":"CELF1","rucaparib or vehicle":"Vehicle","cell line":"OCI-C5x (clear cell)","technical replicate":"1","viability, normalised (%)":"29.8 (active)"}
{"gene symbol":"CELF1","rucaparib or vehicle":"Vehicle","cell line":"OCI-C5x (clear cell)","technical replicate":"2","viability, normalised (%)":"46.2 (active)"}
{"gene symbol":"CELF1","rucaparib or vehicle":"Vehicle","cell line":"OCI-C5x (clear cell)","technical replicate":"3","viability, normalised (%)":"23.2 (active)"}
{"gene symbol":"CELF1","rucaparib or vehicle":"Vehicle","cell line":"OCI-P5x (serous)","technical replicate":"1","viability, normalised (%)":"52.2 (active)"}
{"gene symbol":"CELF1","rucaparib or vehicle":"Vehicle","cell line":"OCI-P5x (serous)","technical replicate":"2","viability, normalised (%)":"65 (active)"}
{"gene symbol":"CELF1","rucaparib or vehicle":"Vehicle","cell line":"OCI-P5x (serous)","technical replicate":"3","viability, normalised (%)":"60 (active)"}
{"gene symbol":"NAALADL1","rucaparib or vehicle":"Rucaparib","cell line":"OCI-C5x (clear cell)","technical replicate":"1","viability, normalised (%)":"42.6 (active)"}
{"gene symbol":"NAALADL1","rucaparib or vehicle":"Rucaparib","cell line":"OCI-C5x (clear cell)","technical replicate":"2","viability, normalised (%)":"55.5 (active)"}
{"gene symbol":"NAALADL1","rucaparib or vehicle":"Rucaparib","cell line":"OCI-C5x (clear cell)","technical replicate":"3","viability, normalised (%)":"46.9 (active)"}
{"gene symbol":"NAALADL1","rucaparib or vehicle":"Rucaparib","cell line":"OCI-P5x (serous)","technical replicate":"1","viability, normalised (%)":83.2}
{"gene symbol":"NAALADL1","rucaparib or vehicle":"Rucaparib","cell line":"OCI-P5x (serous)","technical replicate":"2","viability, normalised (%)":"78.8 (active)"}
{"gene symbol":"NAALADL1","rucaparib or vehicle":"Rucaparib","cell line":"OCI-P5x (serous)","technical replicate":"3","viability, normalised (%)":"74.1 (active)"}
{"gene symbol":"NAALADL1","rucaparib or vehicle":"Vehicle","cell line":"OCI-C5x (clear cell)","technical replicate":"1","viability, normalised (%)":"72.7 (active)"}
{"gene symbol":"NAALADL1","rucaparib or vehicle":"Vehicle","cell line":"OCI-C5x (clear cell)","technical replicate":"2","viability, normalised (%)":"72.3 (active)"}
{"gene symbol":"NAALADL1","rucaparib or vehicle":"Vehicle","cell line":"OCI-C5x (clear cell)","technical replicate":"3","viability, normalised (%)":"56.3 (active)"}
{"gene symbol":"NAALADL1","rucaparib or vehicle":"Vehicle","cell line":"OCI-P5x (serous)","technical replicate":"1","viability, normalised (%)":97.8}
{"gene symbol":"NAALADL1","rucaparib or vehicle":"Vehicle","cell line":"OCI-P5x (serous)","technical replicate":"2","viability, normalised (%)":"54.9 (active)"}
{"gene symbol":"NAALADL1","rucaparib or vehicle":"Vehicle","cell line":"OCI-P5x (serous)","technical replicate":"3","viability, normalised (%)":84.1}
